Measurements from paper doi:10.1101/2025.10.07.680213.
Read-outs that look alike come from different tables or passages of the source. These are yes or no findings as the source states them, for the method shown. Binding seen in cells or lysates may run through a third protein. Some binding calls cover weakened binding; strength is not graded here. Tags and fused reporters may be left off the sequences shown. Blank lines part the entries; values can stand above or below the molecule they belong to.

Amino acid sequences for entries named in this document (tags omitted).
UniProt P14713: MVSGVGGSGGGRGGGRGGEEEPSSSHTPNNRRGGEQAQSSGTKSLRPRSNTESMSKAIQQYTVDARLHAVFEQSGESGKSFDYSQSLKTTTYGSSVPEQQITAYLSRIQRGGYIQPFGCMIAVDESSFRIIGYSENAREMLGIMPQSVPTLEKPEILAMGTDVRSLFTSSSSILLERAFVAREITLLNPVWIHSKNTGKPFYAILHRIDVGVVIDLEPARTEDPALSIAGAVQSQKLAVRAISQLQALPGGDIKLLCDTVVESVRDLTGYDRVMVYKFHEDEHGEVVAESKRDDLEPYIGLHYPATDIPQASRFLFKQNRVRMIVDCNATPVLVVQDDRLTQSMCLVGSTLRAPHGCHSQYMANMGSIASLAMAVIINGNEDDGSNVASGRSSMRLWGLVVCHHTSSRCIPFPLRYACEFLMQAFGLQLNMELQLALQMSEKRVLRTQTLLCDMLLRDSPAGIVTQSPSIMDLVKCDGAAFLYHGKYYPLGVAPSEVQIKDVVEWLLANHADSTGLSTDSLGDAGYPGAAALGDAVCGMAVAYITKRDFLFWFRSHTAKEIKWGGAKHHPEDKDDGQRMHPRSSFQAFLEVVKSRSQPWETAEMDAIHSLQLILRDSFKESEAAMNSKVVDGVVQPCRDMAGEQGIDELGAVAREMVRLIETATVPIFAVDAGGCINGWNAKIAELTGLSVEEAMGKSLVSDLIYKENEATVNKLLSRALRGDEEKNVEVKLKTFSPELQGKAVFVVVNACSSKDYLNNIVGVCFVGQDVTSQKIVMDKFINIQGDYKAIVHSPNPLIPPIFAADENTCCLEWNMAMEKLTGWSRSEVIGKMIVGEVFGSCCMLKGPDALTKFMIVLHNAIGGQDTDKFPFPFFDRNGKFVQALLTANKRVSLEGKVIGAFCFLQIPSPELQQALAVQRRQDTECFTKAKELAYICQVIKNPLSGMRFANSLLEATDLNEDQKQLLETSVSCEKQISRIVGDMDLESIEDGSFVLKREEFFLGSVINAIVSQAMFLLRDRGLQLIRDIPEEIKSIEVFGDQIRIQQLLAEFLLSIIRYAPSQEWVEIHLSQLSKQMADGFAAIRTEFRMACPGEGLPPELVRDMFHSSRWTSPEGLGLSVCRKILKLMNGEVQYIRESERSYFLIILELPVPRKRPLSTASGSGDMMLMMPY

What was measured:
[1] = target: T1, p35S::PIF7-lgbitnLUC (Arabidopsis thaliana) (UniProt Q570R7); assay: split reporter
T1 sequence: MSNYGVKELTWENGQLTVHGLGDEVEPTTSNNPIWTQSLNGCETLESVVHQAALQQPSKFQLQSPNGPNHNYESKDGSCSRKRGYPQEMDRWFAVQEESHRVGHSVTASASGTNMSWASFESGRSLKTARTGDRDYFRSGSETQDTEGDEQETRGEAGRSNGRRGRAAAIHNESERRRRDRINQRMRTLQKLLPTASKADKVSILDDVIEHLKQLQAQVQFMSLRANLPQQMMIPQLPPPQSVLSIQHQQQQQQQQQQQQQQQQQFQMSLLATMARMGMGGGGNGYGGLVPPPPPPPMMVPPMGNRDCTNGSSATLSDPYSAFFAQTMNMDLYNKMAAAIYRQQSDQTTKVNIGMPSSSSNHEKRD

[2] = target: T2, p35S::PIF7-nYFP (PHYTOCHROME … FACTOR 7 fused to nYFP) (Arabidopsis thaliana) (UniProt Q570R7); assay: split reporter
T2 sequence: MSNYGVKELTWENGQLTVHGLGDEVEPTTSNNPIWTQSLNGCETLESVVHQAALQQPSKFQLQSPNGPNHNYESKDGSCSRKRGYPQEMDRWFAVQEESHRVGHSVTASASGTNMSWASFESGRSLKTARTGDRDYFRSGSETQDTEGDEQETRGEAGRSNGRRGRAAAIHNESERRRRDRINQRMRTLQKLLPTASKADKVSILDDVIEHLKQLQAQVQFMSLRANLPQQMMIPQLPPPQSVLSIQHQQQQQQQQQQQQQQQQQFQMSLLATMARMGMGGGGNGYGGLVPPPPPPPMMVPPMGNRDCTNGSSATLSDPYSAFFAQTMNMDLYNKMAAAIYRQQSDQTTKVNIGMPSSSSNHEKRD

[3] = target: T1, p35S::PIF7-lgbitnLUC (Arabidopsis thaliana); assay: split reporter; remark: listed apart in the source
[4] = target: T3, p35S::PIF7-FLASH (9×Myc-6×His-3×FLAG) (Arabidopsis thaliana) (UniProt Q570R7); assay: co-IP
T3 sequence: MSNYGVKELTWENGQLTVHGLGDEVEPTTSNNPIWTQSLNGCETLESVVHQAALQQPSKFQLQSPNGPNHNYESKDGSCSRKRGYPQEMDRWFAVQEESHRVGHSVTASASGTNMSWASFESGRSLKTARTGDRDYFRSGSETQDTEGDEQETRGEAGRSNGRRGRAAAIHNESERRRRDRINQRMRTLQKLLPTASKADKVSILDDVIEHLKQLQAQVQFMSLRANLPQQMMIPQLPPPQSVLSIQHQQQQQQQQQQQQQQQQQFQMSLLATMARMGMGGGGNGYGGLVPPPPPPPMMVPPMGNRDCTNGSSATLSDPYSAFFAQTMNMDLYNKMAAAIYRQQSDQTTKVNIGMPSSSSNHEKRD

B1: p35S::PHYA-cYFP (phytochrome A fused to cYFP) (protein, UniProt P14712 1-1122)
chain: MSGSRPTQSSEGSRRSRHSARIIAQTTVDAKLHADFEESGSSFDYSTSVRVTGPVVENQPPRSDKVTTTYLHHIQKGKLIQPFGCLLALDEKTFKVIAYSENASELLTMASHAVPSVGEHPVLGIGTDIRSLFTAPSASALQKALGFGDVSLLNPILVHCRTSAKPFYAIIHRVTGSIIIDFEPVKPYEVPMTAAGALQSYKLAAKAITRLQSLPSGSMERLCDTMVQEVFELTGYDRVMAYKFHEDDHGEVVSEVTKPGLEPYLGLHYPATDIPQAARFLFMKNKVRMIVDCNAKHARVLQDEKLSFDLTLCGSTLRAPHSCHLQYMANMDSIASLVMAVVVNEEDGEGDAPDATTQPQKRKRLWGLVVCHNTTPRFVPFPLRYACEFLAQVFAIHVNKEVELDNQMVEKNILRTQTLLCDMLMRDAPLGIVSQSPNIMDLVKCDGAALLYKDKIWKLGTTPSEFHLQEIASWLCEYHMDSTGLSTDSLHDAGFPRALSLGDSVCGMAAVRISSKDMIFWFRSHTAGEVRWGGAKHDPDDRDDARRMHPRSSFKAFLEVVKTRSLPWKDYEMDAIHSLQLILRNAFKDSETTDVNTKVIYSKLNDLKIDGIQELEAVTSEMVRLIETATVPILAVDSDGLVNGWNTKIAELTGLSVDEAIGKHFLTLVEDSSVEIVKRMLENALEGTEEQNVQFEIKTHLSRADAGPISLVVNACASRDLHENVVGVCFVAHDLTGQKTVMDKFTRIEGDYKAIIQNPNPLIPPIFGTDEFGWCTEWNPAMSKLTGLKREEVIDKMLLGEVFGTQKSCCRLKNQEAFVNLGIVLNNAVTSQDPEKVSFAFFTRGGKYVECLLCVSKKLDREGVVTGVFCFLQLASHELQQALHVQRLAERTAVKRLKALAYIKRQIRNPLSGIMFTRKMIEGTELGPEQRRILQTSALCQKQLSKILDDSDLESIIEGCLDLEMKEFTLNEVLTASTSQVMMKSNGKSVRITNETGEEVMSDTLYGDSIRLQQVLADFMLMAVNFTPSGGQLTVSASLRKDQLGRSVHLANLEIRLTHTGAGIPEFLLNQMFGTEEDVSEEGLSLMVSRKLVKLMNGDVQYLRQAGKSSFIITAELAAANK
binding [2]: binds

B3: native phytochrome A (phyA) (protein, UniProt P14712 1-1122)
chain: MSGSRPTQSSEGSRRSRHSARIIAQTTVDAKLHADFEESGSSFDYSTSVRVTGPVVENQPPRSDKVTTTYLHHIQKGKLIQPFGCLLALDEKTFKVIAYSENASELLTMASHAVPSVGEHPVLGIGTDIRSLFTAPSASALQKALGFGDVSLLNPILVHCRTSAKPFYAIIHRVTGSIIIDFEPVKPYEVPMTAAGALQSYKLAAKAITRLQSLPSGSMERLCDTMVQEVFELTGYDRVMAYKFHEDDHGEVVSEVTKPGLEPYLGLHYPATDIPQAARFLFMKNKVRMIVDCNAKHARVLQDEKLSFDLTLCGSTLRAPHSCHLQYMANMDSIASLVMAVVVNEEDGEGDAPDATTQPQKRKRLWGLVVCHNTTPRFVPFPLRYACEFLAQVFAIHVNKEVELDNQMVEKNILRTQTLLCDMLMRDAPLGIVSQSPNIMDLVKCDGAALLYKDKIWKLGTTPSEFHLQEIASWLCEYHMDSTGLSTDSLHDAGFPRALSLGDSVCGMAAVRISSKDMIFWFRSHTAGEVRWGGAKHDPDDRDDARRMHPRSSFKAFLEVVKTRSLPWKDYEMDAIHSLQLILRNAFKDSETTDVNTKVIYSKLNDLKIDGIQELEAVTSEMVRLIETATVPILAVDSDGLVNGWNTKIAELTGLSVDEAIGKHFLTLVEDSSVEIVKRMLENALEGTEEQNVQFEIKTHLSRADAGPISLVVNACASRDLHENVVGVCFVAHDLTGQKTVMDKFTRIEGDYKAIIQNPNPLIPPIFGTDEFGWCTEWNPAMSKLTGLKREEVIDKMLLGEVFGTQKSCCRLKNQEAFVNLGIVLNNAVTSQDPEKVSFAFFTRGGKYVECLLCVSKKLDREGVVTGVFCFLQLASHELQQALHVQRLAERTAVKRLKALAYIKRQIRNPLSGIMFTRKMIEGTELGPEQRRILQTSALCQKQLSKILDDSDLESIIEGCLDLEMKEFTLNEVLTASTSQVMMKSNGKSVRITNETGEEVMSDTLYGDSIRLQQVLADFMLMAVNFTPSGGQLTVSASLRKDQLGRSVHLANLEIRLTHTGAGIPEFLLNQMFGTEEDVSEEGLSLMVSRKLVKLMNGDVQYLRQAGKSSFIITAELAAANK
binding [4]: binds

Further lines, results first:

binding [1]: binds
Molecule: p35S::PHYB-smbitnLUC (from UniProt P14713 1-1172)

binding [3]: binds
B2: p35S::PHYA-smbitnLUC (protein, UniProt P14712 1-1122)
chain: MSGSRPTQSSEGSRRSRHSARIIAQTTVDAKLHADFEESGSSFDYSTSVRVTGPVVENQPPRSDKVTTTYLHHIQKGKLIQPFGCLLALDEKTFKVIAYSENASELLTMASHAVPSVGEHPVLGIGTDIRSLFTAPSASALQKALGFGDVSLLNPILVHCRTSAKPFYAIIHRVTGSIIIDFEPVKPYEVPMTAAGALQSYKLAAKAITRLQSLPSGSMERLCDTMVQEVFELTGYDRVMAYKFHEDDHGEVVSEVTKPGLEPYLGLHYPATDIPQAARFLFMKNKVRMIVDCNAKHARVLQDEKLSFDLTLCGSTLRAPHSCHLQYMANMDSIASLVMAVVVNEEDGEGDAPDATTQPQKRKRLWGLVVCHNTTPRFVPFPLRYACEFLAQVFAIHVNKEVELDNQMVEKNILRTQTLLCDMLMRDAPLGIVSQSPNIMDLVKCDGAALLYKDKIWKLGTTPSEFHLQEIASWLCEYHMDSTGLSTDSLHDAGFPRALSLGDSVCGMAAVRISSKDMIFWFRSHTAGEVRWGGAKHDPDDRDDARRMHPRSSFKAFLEVVKTRSLPWKDYEMDAIHSLQLILRNAFKDSETTDVNTKVIYSKLNDLKIDGIQELEAVTSEMVRLIETATVPILAVDSDGLVNGWNTKIAELTGLSVDEAIGKHFLTLVEDSSVEIVKRMLENALEGTEEQNVQFEIKTHLSRADAGPISLVVNACASRDLHENVVGVCFVAHDLTGQKTVMDKFTRIEGDYKAIIQNPNPLIPPIFGTDEFGWCTEWNPAMSKLTGLKREEVIDKMLLGEVFGTQKSCCRLKNQEAFVNLGIVLNNAVTSQDPEKVSFAFFTRGGKYVECLLCVSKKLDREGVVTGVFCFLQLASHELQQALHVQRLAERTAVKRLKALAYIKRQIRNPLSGIMFTRKMIEGTELGPEQRRILQTSALCQKQLSKILDDSDLESIIEGCLDLEMKEFTLNEVLTASTSQVMMKSNGKSVRITNETGEEVMSDTLYGDSIRLQQVLADFMLMAVNFTPSGGQLTVSASLRKDQLGRSVHLANLEIRLTHTGAGIPEFLLNQMFGTEEDVSEEGLSLMVSRKLVKLMNGDVQYLRQAGKSSFIITAELAAANK
